Here are results for two substances from patent publication US20180334646A1.

Sequences of proteins named here, by UniProt entry; tags and fusion partners are left off. Residues count along the entry.
UniProt O15105: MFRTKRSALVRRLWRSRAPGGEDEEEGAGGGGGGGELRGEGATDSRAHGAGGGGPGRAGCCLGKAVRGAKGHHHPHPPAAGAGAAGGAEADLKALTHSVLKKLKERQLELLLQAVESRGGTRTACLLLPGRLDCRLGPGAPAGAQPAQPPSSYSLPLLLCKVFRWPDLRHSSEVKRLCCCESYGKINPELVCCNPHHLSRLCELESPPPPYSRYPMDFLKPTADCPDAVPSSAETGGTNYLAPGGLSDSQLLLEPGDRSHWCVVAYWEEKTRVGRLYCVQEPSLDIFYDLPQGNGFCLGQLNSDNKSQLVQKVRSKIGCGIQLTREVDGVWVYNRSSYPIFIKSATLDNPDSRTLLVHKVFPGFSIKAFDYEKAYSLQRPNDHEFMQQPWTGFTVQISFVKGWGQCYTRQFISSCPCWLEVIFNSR
UniProt Q32ZE1, residues 1143-1368: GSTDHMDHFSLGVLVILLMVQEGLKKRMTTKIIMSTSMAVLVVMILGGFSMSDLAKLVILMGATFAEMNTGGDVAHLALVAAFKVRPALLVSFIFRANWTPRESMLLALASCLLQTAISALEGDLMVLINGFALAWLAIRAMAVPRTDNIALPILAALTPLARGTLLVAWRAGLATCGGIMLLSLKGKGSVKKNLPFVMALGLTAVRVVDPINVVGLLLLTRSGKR

Results are given in words; binding and its absence hold for the method and conditions named. For some of these results: Binding seen in cells or lysates may run through a third protein. Some entries that bind do so weakly or less than the wild type.

Experiment [1] deals with SMAD7 (human) (UniProt O15105). Description: co-immunoprecipitation from HEK293 cells expressing ZIKV-NS2A-HA (anti-HA beads), Western blot. (In general: A western blot detects proteins with antibodies after separation by electrophoresis.)
For experiment [2], the target named is T1, NUMBL (human) (UniProt Q9Y6R0).
T1 sequence: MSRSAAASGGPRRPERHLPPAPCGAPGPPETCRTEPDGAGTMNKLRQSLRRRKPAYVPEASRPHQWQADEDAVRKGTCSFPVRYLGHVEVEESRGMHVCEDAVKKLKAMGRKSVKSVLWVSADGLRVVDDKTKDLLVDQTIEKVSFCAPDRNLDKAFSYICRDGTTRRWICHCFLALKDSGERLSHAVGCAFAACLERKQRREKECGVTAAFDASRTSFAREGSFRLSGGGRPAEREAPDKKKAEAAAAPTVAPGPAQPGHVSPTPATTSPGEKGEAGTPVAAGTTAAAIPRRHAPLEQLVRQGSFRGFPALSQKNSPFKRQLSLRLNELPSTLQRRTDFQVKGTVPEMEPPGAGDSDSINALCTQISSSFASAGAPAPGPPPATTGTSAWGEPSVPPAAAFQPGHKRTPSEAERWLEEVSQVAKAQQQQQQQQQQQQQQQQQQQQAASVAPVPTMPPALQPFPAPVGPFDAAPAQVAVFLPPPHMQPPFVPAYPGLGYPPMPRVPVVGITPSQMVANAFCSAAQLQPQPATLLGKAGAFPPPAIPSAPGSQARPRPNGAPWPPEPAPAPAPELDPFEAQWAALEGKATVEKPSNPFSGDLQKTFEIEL
Described as above.

For experiment [3], the target named is SMAD7 (human) (UniProt O15105). The experiment can be described thus: HuProt human protein microarray probed with Cy5-labelled GST-NS2A; hit cutoff Z>10.
Experiment [4] deals with T1, NUMBL (human). Described as above.

In the case of “HA-tagged ZIKV-NS2A (C-terminal HA), expressed in HEK293 cells (from UniProt Q32ZE1 1143-1368)”, the binding entry with SMAD7 (human) [1] and with NUMBL (human) [2] was “binds” each time.

Take “recombinant ZIKV-NS2A protein (N-terminal GST fusion, Cy5-labelled) (from UniProt Q32ZE1 1143-1368)”: the binding entry with SMAD7 (human) [3] and with NUMBL (human) [4] was “binds” each time.
